Results published in article PMC8016886.
These are yes or no findings as the source states them, for the method shown. In cells and extracts the contact can be indirect. Some results given as binding are weak or reduced against the parent protein; the word gives no strength.

By UniProt entry, the sequences of proteins in these tests, tags left out.
UniProt P09630: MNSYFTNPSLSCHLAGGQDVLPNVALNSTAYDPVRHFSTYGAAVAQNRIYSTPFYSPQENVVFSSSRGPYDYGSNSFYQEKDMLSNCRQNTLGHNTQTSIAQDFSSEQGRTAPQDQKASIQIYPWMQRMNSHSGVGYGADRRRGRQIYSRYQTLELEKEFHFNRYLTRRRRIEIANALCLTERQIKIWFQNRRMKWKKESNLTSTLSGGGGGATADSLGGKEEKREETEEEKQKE
UniProt P35222: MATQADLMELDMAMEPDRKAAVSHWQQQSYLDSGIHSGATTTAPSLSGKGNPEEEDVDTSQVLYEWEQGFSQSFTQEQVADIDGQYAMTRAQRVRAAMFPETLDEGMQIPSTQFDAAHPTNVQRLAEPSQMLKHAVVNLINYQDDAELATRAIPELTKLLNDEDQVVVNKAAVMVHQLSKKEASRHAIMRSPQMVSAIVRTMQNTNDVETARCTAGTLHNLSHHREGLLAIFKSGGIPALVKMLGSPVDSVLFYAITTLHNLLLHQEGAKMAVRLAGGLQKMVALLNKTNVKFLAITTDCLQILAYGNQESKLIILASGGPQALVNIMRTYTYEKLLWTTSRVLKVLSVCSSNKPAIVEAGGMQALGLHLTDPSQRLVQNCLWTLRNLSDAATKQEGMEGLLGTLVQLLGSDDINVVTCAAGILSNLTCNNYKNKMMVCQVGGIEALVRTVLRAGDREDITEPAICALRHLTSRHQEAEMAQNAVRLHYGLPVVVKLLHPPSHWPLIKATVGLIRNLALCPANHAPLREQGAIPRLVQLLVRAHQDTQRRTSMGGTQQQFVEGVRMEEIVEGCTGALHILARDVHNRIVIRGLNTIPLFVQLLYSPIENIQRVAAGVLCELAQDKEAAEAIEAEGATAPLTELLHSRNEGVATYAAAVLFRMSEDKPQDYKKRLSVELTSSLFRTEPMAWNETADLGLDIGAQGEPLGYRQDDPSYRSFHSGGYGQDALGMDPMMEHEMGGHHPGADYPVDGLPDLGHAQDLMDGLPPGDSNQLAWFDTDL

B1: DKK1 (protein, UniProt O94907 32-266)
chain: TLNSVLNSNAIKNLPPPLGGAAGHPGSAVSAAPGILYPGGNKYQTIDNYQPYPCAEDEECGTDEYCASPTRGGDAGVQICLACRKRRKRCMRHAMCCPGNYCKNGICVSSDQNHFRGEIEETITESFGNDHSTLDGYSRRTTLSSKMYHTKGQEGSVCLRSSDCASGLCCARHFWSKICKPVLKEGQVCTKHRRKGSHGLEIFQRCYCGEGLSCRIQKDHHQASNSSRLHTCQRH

Target: homeobox C6 (HOXC6), Flag-tagged, stably overexpressed in HCT116 cells (HOXC6-OE) (human) (UniProt P09630)
Assay: co-IP; FLAG Immunoprecipitation Kit (Flag-gel) on lysates of HOXC6-OE and NC HCT116 cells; eluates western blotted for β-catenin, DKK1 and HOXC6; whole-cell lysate as positive control

binding | Molecule
no binding | β-catenin (from UniProt P35222 1-781)
binds | B1
